Measured values published in PubChem BioAssay AID2685 (National Center for Advancing Translational Sciences (NCATS), 2010).
This is one part of the list. Further columns of the screen follow, without active or inactive calls. Most of these compounds were active or inconclusive in the main read-out, so they are no random draw. The note in brackets gives the kind of curve behind each potency; many fits are weak.

Assay: qHTS Assay for Lipid Storage Modulators in Drosophila S3 Cells;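 for cell number change: cells counted by Cell Tracker Red CMTPX staining in the red channel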
Conditions: BODIPY lipid droplet fluorescence, 18-24 h; for cell number change: measured here: cell count max response, cells fed with added oleic acid
How it was run: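 Drosophila S3 cells got compounds at several concentrations plus oleic acid (400 uM solution). Laser-scanning cytometry with 488 nm excitation read lipid droplets at 500-530 nm and cells at 575-640 nm. Percent activity was relative to 20 uM Triacsin C.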

[1] = measured here: cell number channel AC50, cells fed with added oleic acid
[2] = measured here: lipid fluorescence (Fed channel) AC50, cells fed with added oleic acid

| SMILES | cell number change | AC50 [1] | AC50 [2] |
| --- | --- | --- | --- |
| CCOc1ccccc1N1CCN(C(=O)c2c(Cl)cnn2C)CC1 | -31.7% | 6.51 µM [falling, partial curve] |  |
| O=C(NCc1ccccc1)C(c1ccccc1)N(C(=O)c1csnn1)c1ccc(F)cc1 (stereo unspecified) | -4.76% |  |  |
| Cc1nn(C)cc1/C=N/n1nnnc1N | 6.26% |  | 0.164 µM [falling, full curve, poor fit] |
| CCCN1C(=O)c2ccc(C(=O)Nc3nccs3)cc2C1=O | 72.8% | 20.6 µM [rising, single point] | 0.651 µM [falling, single point] |
| CC1(C)Cc2cccc(OCC(=O)OCC(=O)c3ccccc3)c2O1 | 18.8% |  | 29.1 µM [rising, single point] |
| CCN(Cc1ccccc1)S(=O)(=O)c1cc2c3c(c1)CCN3C(=O)CC2 | 14.5% |  |  |
| O=C(CCc1nc2ccccc2[nH]1)N1CCc2ccccc2C1 | 1.99% |  | 0.116 µM [falling, full curve, poor fit] |
| Cc1ccc(C)c(-c2nnc(NC(=O)C3=COCCO3)o2)c1 | 39.2% | 16.4 µM [rising, single point] | 16.4 µM [rising, partial curve] |
| CC/C=C/C(=O)N1CC2(CC(c3cccc(NC(=O)c4ccccc4)c3)=NO2)C[C@@H]1C(N)=O (stereo partly specified) | -4.31% |  | 0.13 µM [rising, full curve, poor fit] |
| CNc1nc(-c2ccc3c(c2)CCN3C(=O)CC(C)(C)C)c(C)s1 | -21.1% |  | 16.4 µM [falling, partial curve] |
| COCCN1CN(S(=O)(=O)c2ccccc2)c2nc3ccccc3nc21 |  | 0.651 µM [rising, full curve] | 0.731 µM [rising, full curve] |
| c1ccc(-n2cnnc2SCc2nc3ccccc3s2)cc1 |  | 0.517 µM [rising, single point] |  |
| NC(=O)C1CCCN(S(=O)(=O)c2ccc(Br)cc2)C1 (stereo unspecified) | -0.734% |  | 29.1 µM [rising, single point] |
| CSc1cc(N2CCOCC2)nc(-c2ccccc2Cl)n1 |  | 2.06 µM [falling, partial curve, poor fit] | 2.91 µM [rising, single point] |
| CC1(C)CC(Nc2ccc(C(F)(F)F)cc2[N+](=O)[O-])CC(C)(C)N1 | -40.6% | 29.1 µM [falling, single point] |  |
| O=c1c2c3c(sc2n2cnnc2n1Cc1ccccc1)CN(Cc1ccccc1)CC3 |  | 0.326 µM [rising, full curve] |  |
| Nc1c(C(=O)NCc2ccc(F)cc2)c2nc3ccccc3nc2n1CCCN1CCOCC1 | -183% |  |  |
| Cc1occc1-c1nnc(SCC(=O)NC2CCCC2)n1C | 21.8% | 0.731 µM [rising, full curve, poor fit] | 29.1 µM [rising, single point] |
| Cc1ccc(S(=O)(=O)Nc2nc3ccccc3s2)cc1 | -83.6% | 23.1 µM [falling, partial curve] | 1.64 µM [falling, partial curve, poor fit] |
| CC(C)(C)c1ccc(C(=O)N2CCN(C(=O)c3ccco3)CC2)cc1 | -9.05% |  |  |

| SMILES | cell number change | AC50 [1] | AC50 [2] |
| --- | --- | --- | --- |
| Cc1ccccc1NC(=O)Cc1nc(COC(=O)c2ccc(C(F)(F)F)cc2)cs1 | -2.27% |  | 3.26 µM [rising, single point] |
| O=C(CSc1nnc(-c2cccnc2)n1Cc1ccco1)NCc1ccc2c(c1)OCO2 | 94.2% | 29.1 µM [rising, single point] |  |
| C/C(=N\Nc1nc(C(C)(C)C)cs1)c1ccccc1 | -8.84% |  | 0.58 µM [rising, single point] |
| C/C(=N\NC(=O)c1cc(-c2ccc(C)s2)[nH]n1)c1ccco1 | -65.2% | 10.3 µM [falling, single point] | 7.31 µM [rising, partial curve] |
| CCOc1ccc(S(=O)(=O)N(CC)CC)cc1N | 54.5% |  |  |
| CCCN(C(=O)COC(=O)CCOc1ccc(C)cc1)c1c(N)n(Cc2ccccc2)c(=O)[nH]c1=O | -38.1% | 29.1 µM [falling, single point] | 29.1 µM [falling, single point] |
| CC(NC(=O)c1ccc(=O)oc1)c1ccccc1 (stereo unspecified) | 15.9% |  | 0.231 µM [falling, full curve, poor fit] |
| COC(=O)Cc1cc(=O)n2[nH]c(C)cc2n1 | -45.2% | 0.116 µM [falling, full curve] |  |
| CNC(=O)c1sc2nc(-c3ccc(OC)cc3)cn2c1C | -65.2% | 29.1 µM [falling, single point] | 18.4 µM [falling, partial curve] |
| CCOc1cc(/C=N/Nc2nc(N3CCCC3)nc(N3CCCC3)n2)ccc1O | -27.2% |  | 29.1 µM [falling, single point] |
| Cc1ccc(OCC(=O)Nc2ccccc2C(=O)NC2CC2)cc1 | 10.7% |  | 1.84 µM [rising, partial curve, poor fit] |
| CC(=O)N1CCc2cc(S(=O)(=O)N3CCOCC3)ccc21 | -34.4% | 29.1 µM [falling, single point] | 29.1 µM [falling, single point] |
| Cc1cccc(C(=O)NCC(=O)OCC(=O)N2CCCCC2)c1 | -53.8% | 29.1 µM [falling, single point] | 29.1 µM [falling, single point] |
| Cc1ccc(-c2cccc(CN3CCN(C(C)C)C(CCO)C3)c2)o1 (stereo unspecified) | 6.02% |  | 29.1 µM [rising, single point] |
| O=C(CCCCCn1c(=S)[nH]c2cc3c(cc2c1=O)OCO3)N1CCN(c2ccc(F)cc2)CC1 | 17% |  | 6.51 µM [rising, single point] |
| COc1ccc(NC(=O)CN(C)C(=O)c2cn(-c3ccccc3)nc2-c2cccnc2)cc1 | -0.362% |  | 0.082 µM [rising, full curve, poor fit] |
| CCC[N+](C)(C)C(C)C(OC(C)=O)c1ccccc1 (stereo unspecified) | 32.4% | 29.1 µM [rising, single point] |  |
| CC(C)C(=O)O/N=C(\N)c1ccccn1 | 33.1% | 29.1 µM [rising, single point] |  |
| Cc1nnc(SCC(=O)c2ccc(Cl)cc2)n(N)c1=O | 10.1% |  | 0.291 µM [rising, full curve, poor fit] |
| O=C(Nc1cc(Cl)ccc1O)C1CC(c2c(F)cccc2Cl)=NO1 (stereo unspecified) | -6.99% |  | 16.4 µM [falling, single point] |

| SMILES | cell number change | AC50 [1] | AC50 [2] |
| --- | --- | --- | --- |
| O=C(CSc1nc2ccc(NC(=O)c3ccccc3C(=O)O)cc2s1)Nc1ccc(F)c([N+](=O)[O-])c1 | -38.1% | 20.6 µM [falling, partial curve, poor fit] |  |
| COC(=O)c1cc(OC)c(OC)cc1NC(=O)c1cccc(OC)c1OC | -2.77% |  | 0.146 µM [falling, full curve] |
| O=C(CN1C(=O)S/C(=C\c2ccccn2)C1=O)Nc1ccc(F)cc1 | 6.52% |  | 6.51 µM [rising, single point] |
| CCCCCCNC(=O)C(C#N)c1nc2ccccc2nc1N1CCCC1 (stereo unspecified) | 20.8% |  |  |
| CC(OC1=CC(=O)CCC1)C(=O)c1ccccc1 (stereo unspecified) | -8.86% |  |  |
| OCCC1CN(C2CCC2)CCN1Cc1ccc(F)c(F)c1 (stereo unspecified) | -11.5% |  | 29.1 µM [rising, single point] |
| CCC(=O)Nc1ccc(C(=O)CN2C(=O)NC3(CCCCCC3)C2=O)cc1 | 22.8% |  | 1.64 µM [rising, partial curve] |
| CCCCN1CNC(=S)N(c2cc(C)ccc2C)C1 | -57.9% | 29.1 µM [falling, single point] | 29.1 µM [falling, single point] |
| CCOc1ccc(NC(=O)CCC(=O)OC)cc1 | 0.703% | 2.31 µM [falling, single point] | 6.51 µM [falling, single point] |
| O=C(c1ccc2c(c1)OCCO2)N1CCN(Cc2ccccc2)CC1 | 7.78% |  | 0.184 µM [rising, full curve] |
| COc1cc(OC)cc(C(=O)NCCCNC(=O)c2cccnc2)c1 | -10.5% |  |  |
| CCOc1ccc(S(=O)(=O)N2Cc3ccccc3CC2C(=O)NCCCn2ccnc2)cc1 (stereo unspecified) | -18.1% |  | 0.651 µM [rising, full curve] |
| Cc1cccc(C)c1OCc1cc(C(=O)N2CCC(c3ccccc3)CC2)no1 | 31.8% |  | 18.4 µM [rising, single point] |
| COC(=O)N/N=C/c1cn(Cc2c(Cl)cccc2Cl)c2ccccc12 | -2.52% |  | 13 µM [rising, partial curve] |
| CC(=O)c1c(C)[nH]c(C(=O)OCC(=O)c2c(N)n(CC(C)C)c(=O)n(C)c2=O)c1C | -25.4% |  | 0.326 µM [falling, partial curve, poor fit] |
| O=[N+]([O-])c1ccc(NCc2ccccc2)nc1 | -13.3% | 0.082 µM [falling, full curve, poor fit] |  |
| Oc1ccc(-c2nnc(SCc3ccccc3)o2)cc1 | 43.5% |  | 29.1 µM [rising, partial curve, poor fit] |
| O=C(Nc1ccc(N2CCCCC2)cc1)c1cc(S(=O)(=O)N2CCOCC2)ccc1F |  |  | 13 µM [falling, partial curve] |
| Cc1ccc(-c2[nH]nc(N)c2N=Nc2ccccc2C)cc1 | -40.6% | 20.6 µM [falling, single point] | 23.1 µM [falling, single point] |
| O=C(c1cc([N+](=O)[O-])ccc1N1CCOCC1)N1CCOCC1 | -3.25% |  | 0.82 µM [falling, single point] |

Copied from the list:
AC50 [1], Cc1ccc(-c2[nH]nc(N)c2N=Nc2ccccc2C)cc1 reads 20.6 µM [falling, single point]
AC50 [2], CCOc1ccc(S(=O)(=O)N2Cc3ccccc3CC2C(=O)NCCCn2ccnc2)cc1 (stereo unspecified) reads 0.651 µM [rising, full curve]

A second format for part of the listing above.
SMILES,cell number change,AC50 [1],AC50 [2]
CCOc1ccc(S(=O)(=O)N2Cc3ccccc3CC2C(=O)NCCCn2ccnc2)cc1 (stereo unspecified),-18.1%,,"0.651 µM [rising, full curve]"
Cc1cccc(C)c1OCc1cc(C(=O)N2CCC(c3ccccc3)CC2)no1,31.8%,,"18.4 µM [rising, single point]"
